The values that follow come from the supplement of paper PMC10032668.

Chains of the proteins cited; added tags and fusions are not shown.
TUBB8, Q3ZCM7, UniProt Q3ZCM7, whole entry: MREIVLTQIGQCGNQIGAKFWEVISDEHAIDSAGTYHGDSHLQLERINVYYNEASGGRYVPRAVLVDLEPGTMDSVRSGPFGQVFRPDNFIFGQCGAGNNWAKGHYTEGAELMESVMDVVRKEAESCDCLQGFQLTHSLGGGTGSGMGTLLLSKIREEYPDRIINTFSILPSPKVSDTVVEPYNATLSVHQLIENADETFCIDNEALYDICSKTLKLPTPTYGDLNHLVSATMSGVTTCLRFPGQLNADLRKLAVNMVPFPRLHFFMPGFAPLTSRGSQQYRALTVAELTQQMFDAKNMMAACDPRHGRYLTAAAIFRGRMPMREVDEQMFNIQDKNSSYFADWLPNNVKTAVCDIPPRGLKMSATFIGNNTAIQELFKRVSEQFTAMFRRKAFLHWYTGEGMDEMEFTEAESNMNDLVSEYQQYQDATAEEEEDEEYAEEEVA
CDK9, P50750, UniProt P50750, whole entry: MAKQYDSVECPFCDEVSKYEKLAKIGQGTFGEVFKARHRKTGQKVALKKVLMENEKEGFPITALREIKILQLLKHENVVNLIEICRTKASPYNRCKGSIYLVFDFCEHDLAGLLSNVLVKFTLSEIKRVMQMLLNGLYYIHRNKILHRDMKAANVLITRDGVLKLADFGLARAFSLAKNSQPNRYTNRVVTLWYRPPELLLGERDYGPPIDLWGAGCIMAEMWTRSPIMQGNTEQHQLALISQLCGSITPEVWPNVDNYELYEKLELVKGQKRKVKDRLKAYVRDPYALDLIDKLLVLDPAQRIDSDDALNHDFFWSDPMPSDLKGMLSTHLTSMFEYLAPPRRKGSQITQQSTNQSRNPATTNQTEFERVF
DYNLRB1, Q9NP97, UniProt Q9NP97, whole entry: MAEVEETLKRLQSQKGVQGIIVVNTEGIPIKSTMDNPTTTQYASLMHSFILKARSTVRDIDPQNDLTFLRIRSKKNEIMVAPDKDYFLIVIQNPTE
EIF2B5, Q13144, UniProt Q13144, whole entry: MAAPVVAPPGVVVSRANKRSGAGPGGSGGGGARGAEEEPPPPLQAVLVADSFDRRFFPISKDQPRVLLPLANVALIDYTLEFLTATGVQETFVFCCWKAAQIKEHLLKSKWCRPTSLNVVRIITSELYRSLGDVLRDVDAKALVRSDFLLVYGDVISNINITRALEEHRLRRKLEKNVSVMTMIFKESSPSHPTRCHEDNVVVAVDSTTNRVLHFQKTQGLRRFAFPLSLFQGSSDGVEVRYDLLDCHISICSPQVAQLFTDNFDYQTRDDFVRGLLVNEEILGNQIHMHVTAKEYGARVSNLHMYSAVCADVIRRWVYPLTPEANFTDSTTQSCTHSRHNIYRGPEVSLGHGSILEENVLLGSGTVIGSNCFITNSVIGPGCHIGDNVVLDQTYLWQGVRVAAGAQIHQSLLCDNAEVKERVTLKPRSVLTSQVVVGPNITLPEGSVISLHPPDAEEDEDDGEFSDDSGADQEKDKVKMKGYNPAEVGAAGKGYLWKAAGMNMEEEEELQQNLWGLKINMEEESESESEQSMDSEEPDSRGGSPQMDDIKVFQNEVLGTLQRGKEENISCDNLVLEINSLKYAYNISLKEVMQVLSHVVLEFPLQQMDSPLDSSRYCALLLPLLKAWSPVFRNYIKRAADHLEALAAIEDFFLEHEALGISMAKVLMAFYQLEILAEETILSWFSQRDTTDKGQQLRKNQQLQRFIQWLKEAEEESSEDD
HUWE1, Q7Z6Z7, UniProt Q7Z6Z7, whole entry: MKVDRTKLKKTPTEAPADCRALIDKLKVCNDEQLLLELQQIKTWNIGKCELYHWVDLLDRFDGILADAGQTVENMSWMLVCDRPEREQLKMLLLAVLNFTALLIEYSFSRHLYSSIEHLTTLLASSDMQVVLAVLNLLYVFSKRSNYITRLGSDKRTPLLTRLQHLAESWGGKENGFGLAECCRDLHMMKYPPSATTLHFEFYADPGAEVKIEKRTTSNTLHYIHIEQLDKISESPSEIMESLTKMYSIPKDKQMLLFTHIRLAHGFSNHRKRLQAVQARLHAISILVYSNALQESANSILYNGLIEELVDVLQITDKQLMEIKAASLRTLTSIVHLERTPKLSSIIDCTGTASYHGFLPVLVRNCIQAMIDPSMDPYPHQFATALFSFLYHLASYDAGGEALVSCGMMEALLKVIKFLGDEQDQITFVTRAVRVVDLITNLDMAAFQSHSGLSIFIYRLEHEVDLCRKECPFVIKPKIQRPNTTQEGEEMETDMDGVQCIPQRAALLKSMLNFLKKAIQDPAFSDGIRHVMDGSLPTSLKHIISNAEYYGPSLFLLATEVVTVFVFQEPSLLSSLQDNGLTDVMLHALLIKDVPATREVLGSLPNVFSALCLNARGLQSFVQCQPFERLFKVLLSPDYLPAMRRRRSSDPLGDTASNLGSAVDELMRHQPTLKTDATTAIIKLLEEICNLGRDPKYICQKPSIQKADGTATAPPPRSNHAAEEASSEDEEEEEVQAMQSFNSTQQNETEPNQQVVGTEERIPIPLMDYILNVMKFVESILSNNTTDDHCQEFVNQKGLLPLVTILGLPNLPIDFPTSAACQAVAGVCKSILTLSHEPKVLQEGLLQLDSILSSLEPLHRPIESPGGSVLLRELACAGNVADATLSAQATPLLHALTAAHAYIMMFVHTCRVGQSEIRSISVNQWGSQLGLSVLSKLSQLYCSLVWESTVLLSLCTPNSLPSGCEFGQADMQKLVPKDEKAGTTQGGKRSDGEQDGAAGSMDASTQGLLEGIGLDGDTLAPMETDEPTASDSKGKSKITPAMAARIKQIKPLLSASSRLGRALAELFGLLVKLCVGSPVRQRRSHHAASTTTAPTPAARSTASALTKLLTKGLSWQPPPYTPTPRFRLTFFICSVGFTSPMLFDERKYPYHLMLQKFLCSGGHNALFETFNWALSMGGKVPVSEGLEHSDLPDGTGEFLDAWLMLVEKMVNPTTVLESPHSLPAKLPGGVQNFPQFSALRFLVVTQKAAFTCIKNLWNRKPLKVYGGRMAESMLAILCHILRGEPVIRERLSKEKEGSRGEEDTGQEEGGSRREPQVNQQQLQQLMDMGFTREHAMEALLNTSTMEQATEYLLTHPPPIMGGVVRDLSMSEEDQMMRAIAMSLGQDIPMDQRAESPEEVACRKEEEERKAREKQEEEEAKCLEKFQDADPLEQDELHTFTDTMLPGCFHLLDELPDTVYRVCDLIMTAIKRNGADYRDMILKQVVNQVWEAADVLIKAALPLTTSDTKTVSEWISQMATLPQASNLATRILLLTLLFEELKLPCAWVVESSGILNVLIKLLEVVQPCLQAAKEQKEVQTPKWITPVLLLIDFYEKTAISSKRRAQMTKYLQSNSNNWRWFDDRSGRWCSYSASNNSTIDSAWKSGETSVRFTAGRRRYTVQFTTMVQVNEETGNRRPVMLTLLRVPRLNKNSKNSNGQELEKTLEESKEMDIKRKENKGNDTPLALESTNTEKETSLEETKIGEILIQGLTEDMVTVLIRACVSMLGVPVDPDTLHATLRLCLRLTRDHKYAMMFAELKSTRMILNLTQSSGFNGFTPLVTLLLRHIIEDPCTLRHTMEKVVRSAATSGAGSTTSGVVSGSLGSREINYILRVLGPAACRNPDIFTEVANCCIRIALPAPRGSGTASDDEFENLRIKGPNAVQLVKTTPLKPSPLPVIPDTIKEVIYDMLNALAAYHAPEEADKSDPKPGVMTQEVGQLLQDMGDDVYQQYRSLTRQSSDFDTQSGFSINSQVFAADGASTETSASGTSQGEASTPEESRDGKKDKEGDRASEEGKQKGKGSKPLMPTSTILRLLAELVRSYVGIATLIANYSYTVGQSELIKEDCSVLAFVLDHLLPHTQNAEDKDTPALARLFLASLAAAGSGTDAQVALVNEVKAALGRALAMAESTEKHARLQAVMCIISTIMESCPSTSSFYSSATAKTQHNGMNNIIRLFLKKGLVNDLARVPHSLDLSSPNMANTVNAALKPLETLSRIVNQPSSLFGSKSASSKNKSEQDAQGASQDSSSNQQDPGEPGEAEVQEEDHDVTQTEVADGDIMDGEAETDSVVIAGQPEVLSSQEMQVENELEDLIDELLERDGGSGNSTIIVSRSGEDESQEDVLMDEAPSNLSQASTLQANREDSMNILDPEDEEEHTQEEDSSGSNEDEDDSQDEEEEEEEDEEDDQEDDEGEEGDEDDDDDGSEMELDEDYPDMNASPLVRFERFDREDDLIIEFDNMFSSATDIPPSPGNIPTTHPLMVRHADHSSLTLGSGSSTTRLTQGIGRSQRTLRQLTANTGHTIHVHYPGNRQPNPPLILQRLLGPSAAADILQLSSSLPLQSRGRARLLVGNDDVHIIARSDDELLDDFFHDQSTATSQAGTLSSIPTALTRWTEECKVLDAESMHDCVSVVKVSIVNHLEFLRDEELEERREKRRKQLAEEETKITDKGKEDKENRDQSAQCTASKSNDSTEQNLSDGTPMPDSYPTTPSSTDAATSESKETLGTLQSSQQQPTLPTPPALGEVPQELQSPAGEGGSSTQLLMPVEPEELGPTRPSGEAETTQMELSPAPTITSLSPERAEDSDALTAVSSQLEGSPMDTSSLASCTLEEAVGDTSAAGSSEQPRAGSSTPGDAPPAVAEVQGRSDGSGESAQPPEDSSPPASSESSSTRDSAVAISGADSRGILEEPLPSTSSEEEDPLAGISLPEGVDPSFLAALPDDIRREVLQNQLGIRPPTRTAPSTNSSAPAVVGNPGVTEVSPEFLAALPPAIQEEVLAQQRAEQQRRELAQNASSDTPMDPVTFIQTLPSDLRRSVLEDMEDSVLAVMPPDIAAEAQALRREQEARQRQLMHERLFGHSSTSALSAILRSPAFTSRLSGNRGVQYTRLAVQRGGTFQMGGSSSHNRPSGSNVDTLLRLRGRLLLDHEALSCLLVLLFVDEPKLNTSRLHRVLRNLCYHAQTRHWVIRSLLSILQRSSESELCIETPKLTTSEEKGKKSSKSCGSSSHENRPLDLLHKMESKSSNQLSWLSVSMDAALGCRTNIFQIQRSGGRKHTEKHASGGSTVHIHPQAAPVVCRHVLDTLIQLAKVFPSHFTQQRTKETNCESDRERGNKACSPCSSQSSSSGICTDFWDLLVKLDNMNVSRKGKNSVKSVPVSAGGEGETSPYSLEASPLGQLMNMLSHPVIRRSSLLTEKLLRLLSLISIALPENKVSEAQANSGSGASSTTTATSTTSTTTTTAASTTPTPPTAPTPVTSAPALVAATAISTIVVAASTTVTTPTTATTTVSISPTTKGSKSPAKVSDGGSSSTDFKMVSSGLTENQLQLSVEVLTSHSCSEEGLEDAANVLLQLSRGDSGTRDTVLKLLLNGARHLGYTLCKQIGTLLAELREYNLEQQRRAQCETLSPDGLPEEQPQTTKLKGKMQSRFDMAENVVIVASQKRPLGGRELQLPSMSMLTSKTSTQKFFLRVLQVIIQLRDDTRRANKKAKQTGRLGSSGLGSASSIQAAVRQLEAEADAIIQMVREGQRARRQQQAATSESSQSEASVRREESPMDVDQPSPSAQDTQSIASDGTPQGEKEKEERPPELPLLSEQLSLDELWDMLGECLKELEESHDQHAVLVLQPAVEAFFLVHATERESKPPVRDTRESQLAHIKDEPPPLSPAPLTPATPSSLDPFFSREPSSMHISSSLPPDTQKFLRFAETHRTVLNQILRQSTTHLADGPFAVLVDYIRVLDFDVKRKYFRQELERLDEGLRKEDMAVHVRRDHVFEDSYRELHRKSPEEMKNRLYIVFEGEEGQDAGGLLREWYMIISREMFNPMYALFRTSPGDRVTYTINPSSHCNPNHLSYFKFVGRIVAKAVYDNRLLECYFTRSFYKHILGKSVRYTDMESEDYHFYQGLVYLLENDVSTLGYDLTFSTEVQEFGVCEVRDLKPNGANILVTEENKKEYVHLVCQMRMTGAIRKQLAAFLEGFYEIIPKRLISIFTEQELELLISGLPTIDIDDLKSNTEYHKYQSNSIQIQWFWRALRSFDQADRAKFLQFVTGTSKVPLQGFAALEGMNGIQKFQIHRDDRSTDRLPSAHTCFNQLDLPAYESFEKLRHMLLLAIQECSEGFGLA
YY1, P25490, UniProt P25490, whole entry: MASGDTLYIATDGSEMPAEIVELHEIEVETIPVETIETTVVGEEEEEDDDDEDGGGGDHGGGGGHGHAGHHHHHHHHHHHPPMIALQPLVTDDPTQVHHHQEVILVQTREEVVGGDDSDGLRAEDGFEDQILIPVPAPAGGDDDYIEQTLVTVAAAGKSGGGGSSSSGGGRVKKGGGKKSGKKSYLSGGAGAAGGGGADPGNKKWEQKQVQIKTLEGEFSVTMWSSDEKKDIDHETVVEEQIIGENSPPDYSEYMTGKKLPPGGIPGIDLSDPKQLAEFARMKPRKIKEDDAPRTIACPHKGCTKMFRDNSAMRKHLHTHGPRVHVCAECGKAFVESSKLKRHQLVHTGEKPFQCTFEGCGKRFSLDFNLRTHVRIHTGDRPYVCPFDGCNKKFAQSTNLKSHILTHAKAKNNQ
NUTF2, P61970, UniProt P61970, whole entry: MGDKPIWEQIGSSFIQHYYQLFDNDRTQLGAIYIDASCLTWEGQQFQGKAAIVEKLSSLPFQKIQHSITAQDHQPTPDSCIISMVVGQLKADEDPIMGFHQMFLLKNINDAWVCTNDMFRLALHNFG

This is one part of the list. The list holds hits alone, and they repeat only in part.

Assay in all cases: PRISMA enrichment of interactor (LFQ) in peptide spot vs all other peptide spots (log2 fold change); higher = stronger / more specific binding of the interactor to the peptide
For one test, the target named is NSUN4, Q96CB9. The procedure:
(§1)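 PRISMA: 221 full-length sORF-encoded peptides (3-15 aa), plus SOS1/GLUT1 control peptides, were spot-synthesized on cellulose membranes in triplicate. Membranes were incubated with HEK293T lysate, and bound proteins were identified by LC-MS/MS with LFQ. Enrichment is the log2 fold change versus all other peptide spots; only significant interactors are listed (cutoff c=6, x0=2.8).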

For a further test, the target named is RCN2, Q14257. The procedure:
as §1

The target of another test is TUBB8, Q3ZCM7. How it is done:
as §1

In the next test the target is AAAS, Q9NRG9. The procedure: (§2)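 PRISMA: 15-aa overlapping tiles (offset 8 aa) of 60 microproteins, plus SOS1/GLUT1 control peptides, were spot-synthesized on cellulose membranes in triplicate. Membranes were incubated with benzonase-treated HEK293T lysate, and bound proteins were identified by LC-MS/MS with LFQ. Enrichment is the log2 fold change of each protein in one spot versus all other spots. Only interactors passing the significance cutoff are listed.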

Another test deals with ALDOB, P05062. How it is done:
as §2

The next test concerns the target ANAPC7, Q9UJX3. How it is done: as §2
In another test the target is CCDC88A, Q3V6T2. How it is done:
as §2

Another test has as its target CSNK2A2, P19784. The procedure:
as §2

The target of another test is DDOST, P39656. The procedure: as §2
Another test addresses DEF8, Q6ZN54. How it is done: as §2
Another test has as its target DHX29, Q7Z478. How it is done: as §2
The next test addresses DIEXF, Q68CQ4. How it is done:
as §2

The next test concerns the target DKC1, O60832. How it is done:
as §2

Another test has as its target EI24, O14681. The procedure: as §2
The next test has as its target HP, P00738. The procedure: as §2
Another test deals with LEO1, Q8WVC0. How it is done:
as §2

For a further test, the target named is PDCD10, Q9BUL8. The procedure: as §2
Another test has as its target POP1, Q99575. The procedure: as §2
In a further test the target is RNF213, Q63HN8. How it is done: as §2
Another test addresses RPUSD3, Q6P087. How it is done: as §2
Another test concerns the target SETD7, Q8WTS6. The procedure: as §2
In another test the target is SSR3, Q9UNL2. How it is done:
as §2

A further test addresses TMED2, Q15363. How it is done:
as §2

The target of the next test is ZNF275, Q9NSD4. How it is done: as §2
For the next test, the target named is NTMT1, Q9BV86. The procedure:
as §1

Another test concerns the target AARS2, Q5JTZ9. How it is done: as §2
For a further test, the target named is AQR, O60306. How it is done:
as §2

The target in a further test is ATG4B, Q9Y4P1. The procedure:
as §2

The target in another test is C7orf50, Q9BRJ6. The procedure:
as §2

In a further test the target is CDK9, P50750. The procedure:
as §2

The target of the next test is CHCHD2, Q9Y6H1. How it is done: as §2
A further test has as its target CHCHD3, Q9NX63. How it is done: as §2
A further test addresses COPS2, P61201. How it is done: as §2
The target of a further test is DDX6, P26196. How it is done: as §2
The target in the next test is DLGAP5, Q15398. How it is done: as §2
Another test addresses DTYMK, P23919. How it is done:
as §2

Another test has as its target DYNC1H1, Q14204. The procedure: as §2
The next test concerns the target DYNLRB1, Q9NP97. The procedure:
as §2

For another test, the target named is EIF2B5, Q13144. How it is done:
as §2

In another test the target is EIF3F, O00303. How it is done: as §2
Another test concerns the target ELP2, Q6IA86. How it is done: as §2
The next test deals with FBXO45, P0C2W1. The procedure: as §2
For another test, the target named is GEMIN5, Q8TEQ6. The procedure: as §2
The next test addresses GNL3, Q9BVP2. The procedure:
as §2

The target of the next test is HUWE1, Q7Z6Z7. The procedure: as §2
For another test, the target named is MRPL39, Q9NYK5. The procedure: as §2
A further test deals with MRPL58, Q14197. How it is done: as §2
The target of a further test is NCAPD3, P42695. The procedure: as §2
A further test concerns the target NDUFB5, O43674. The procedure: as §2
The target of a further test is NPM3, O75607. How it is done: as §2
A further test deals with NUP88, Q99567. How it is done: as §2
For another test, the target named is ODF2, Q5BJF6. The procedure: as §2
Substrate in test [1]: PC, P11498
The procedure:
as §2

The next test deals with PDS5B, Q9NTI5. How it is done:
as §2

In another test the target is PGK1, P00558. How it is done: as §2
In a further test the target is PRDX5, P30044. How it is done: as §2
A further test addresses PSMD8, P48556. How it is done:
as §2

The next test addresses RAB3GAP2, Q9H2M9. How it is done:
as §2

The next test concerns the target RRP9, O43818. The procedure:
as §2

The next test concerns the target SASS6, Q6UVJ0. How it is done:
as §2

The next test has as its target SDE2, Q6IQ49. The procedure: as §2
Another test deals with SMARCA4, P51532. The procedure: as §2
Another test deals with TFB2M, Q9H5Q4. How it is done: as §2
Another test concerns the target UMPS, P11172. The procedure: as §2
For another test, the target named is UPF1, Q92900. How it is done: as §2
The target in a further test is URB1, O60287. The procedure:
as §2

The target of a further test is YY1, P25490. The procedure:
as §2

The target in another test is ZNF771, Q7L3S4. The procedure: as §2
The next test has as its target hCG_1984214. The procedure: as §2
A further test addresses NUTF2, P61970. The procedure: as §1

For the molecule MAATILW [RAD23B], in the test with NSUN4, Q96CB9, the “PRISMA enrichment of interactor (log2)” value amounted to 8.18.
Regarding MRAVRVV [RDH10], the “PRISMA enrichment of interactor (log2)” value was determined as 7.4 in the test with RCN2, Q14257 and 6.91 with TUBB8, Q3ZCM7.
As to NVTGLNTILHFRKRT [LINC01560], the “PRISMA enrichment of interactor (log2)” value with AAAS, Q9NRG9 is 5.83; in the test with ALDOB, P05062 it was 7.71; in the test with ANAPC7, Q9UJX3, 9.42; with CCDC88A, Q3V6T2, 4.39; with CSNK2A2, P19784, 4.1; in the test with DDOST, P39656, 6.28. The “PRISMA enrichment of interactor (log2)” value with DEF8, Q6ZN54 came to 4.44; with DHX29, Q7Z478 it was 3.89; with DIEXF, Q68CQ4, 6.14; in the test with DKC1, O60832 it was 10.8; in the test with EI24, O14681 it was 4.26; with HP, P00738 it was 4.91. The “PRISMA enrichment of interactor (log2)” value with LEO1, Q8WVC0 was found to be 6.32; with PDCD10, Q9BUL8, 5.76; in the test with POP1, Q99575 it was 6.26; with RNF213, Q63HN8, 5.73; with RPUSD3, Q6P087, 7.96; with SETD7, Q8WTS6 it was 6.78. Besides, the “PRISMA enrichment of interactor (log2)” value with SSR3, Q9UNL2 is 4.65; with TMED2, Q15363, 6.37; with ZNF275, Q9NSD4, 3.9.
In the case of MDETPKQRIQED [GCNT2], the “PRISMA enrichment of interactor (log2)” value with NTMT1, Q9BV86 was determined as 6.22.
As to MAPWSREAVLSLYRA [MIEF-MP], the “PRISMA enrichment of interactor (log2)” value with AAAS, Q9NRG9 turned out to be 5; with AARS2, Q5JTZ9, 5.68; with AQR, O60306, 5.62; in the test with ATG4B, Q9Y4P1, 5.06; in the test with C7orf50, Q9BRJ6 it was 4; with CDK9, P50750 it was 4.44. In addition, the “PRISMA enrichment of interactor (log2)” value in the test with CHCHD2, Q9Y6H1 stood at 5.12; with CHCHD3, Q9NX63, 4.52; with COPS2, P61201, 7.16; with DDX6, P26196, 5.28; with DLGAP5, Q15398, 4.45; with DTYMK, P23919, 4.78. Besides, the “PRISMA enrichment of interactor (log2)” value came to 4.74 with DYNC1H1, Q14204; 5.42 with DYNLRB1, Q9NP97; 4.49 in the test with EIF2B5, Q13144; 4.9 with EIF3F, O00303; 3.97 in the test with ELP2, Q6IA86; 4.23 in the test with FBXO45, P0C2W1. For the same molecule, the “PRISMA enrichment of interactor (log2)” value stood at 4.45 with GEMIN5, Q8TEQ6; 5.05 in the test with GNL3, Q9BVP2; 4.57 with HUWE1, Q7Z6Z7; 5.31 in the test with MRPL39, Q9NYK5; 4.45 in the test with MRPL58, Q14197; 4.58 with NCAPD3, P42695. Besides, the “PRISMA enrichment of interactor (log2)” value with NDUFB5, O43674 turned out to be 4.72; in the test with NPM3, O75607, 3.84; with NUP88, Q99567, 4.85; with ODF2, Q5BJF6, 7.22; in test [1] it was 6.82; with PDS5B, Q9NTI5, 4.9. Besides, the “PRISMA enrichment of interactor (log2)” value with PGK1, P00558 came out at 3.99; with PRDX5, P30044, 4.41; with PSMD8, P48556, 9.59; with RAB3GAP2, Q9H2M9 it was 4.26; with RRP9, O43818, 5.39; with SASS6, Q6UVJ0, 4.53. For the same molecule, the “PRISMA enrichment of interactor (log2)” value in the test with SDE2, Q6IQ49 came to 3.87; in the test with SMARCA4, P51532 it was 4.8; with TFB2M, Q9H5Q4 it was 4.59; with UMPS, P11172, 5.69; with UPF1, Q92900, 4.19; in the test with URB1, O60287 it was 6.23. In addition, the “PRISMA enrichment of interactor (log2)” value in the test with YY1, P25490 stood at 6.62; with ZNF771, Q7L3S4, 4.92; in the test with hCG_1984214 it was 4.16.
As to MAFLNG [NR2F2], in the test with NUTF2, P61970, the “PRISMA enrichment of interactor (log2)” value was 5.26.
